In ChEMBL document CHEMBL4316593 (Eur J Med Chem, 2019):
Further values from the same series stand in other lists.

How the values were obtained:
Type in all cases: cell-based
Details in all cases: U-87MG ATCC
[1] = Inhibition of RTK/PI3K/AKT/mTOR signaling in human U87 cells assessed as down regulation of EIF1AD gene expression at cytotoxic IC50 measured after 48 hrs relative to control
[2] = Inhibition of RTK/PI3K/AKT/mTOR signaling in human U87 cells assessed as down regulation of AP5Z1 gene expression at cytotoxic IC50 measured after 48 hrs relative to control
[3] = Inhibition of RTK/PI3K/AKT/mTOR signaling in human U87 cells assessed as down regulation of RFC3 gene expression at cytotoxic IC50 measured after 48 hrs relative to control
[4] = Inhibition of RTK/PI3K/AKT/mTOR signaling in human U87 cells assessed as down regulation of BIRC3 gene expression at cytotoxic IC50 measured after 48 hrs relative to control
[5] = Inhibition of RTK/PI3K/AKT/mTOR signaling in human U87 cells assessed as down regulation of ATF7IP2 gene expression at cytotoxic IC50 measured after 48 hrs relative to control
[6] = Inhibition of RTK/PI3K/AKT/mTOR signaling in human U87 cells assessed as down regulation of XRCC3 gene expression at cytotoxic IC50 measured after 48 hrs relative to control
[7] = Inhibition of RTK/PI3K/AKT/mTOR signaling in human U87 cells assessed as up regulation of RNF220 gene expression at cytotoxic IC50 measured after 48 hrs relative to control
[8] = Inhibition of RTK/PI3K/AKT/mTOR signaling in human U87 cells assessed as up regulation of sodium voltage-gated channel alpha subunit 5 gene expression at cytotoxic IC50 measured after 48 hrs relative to control
[9] = Inhibition of RTK/PI3K/AKT/mTOR signaling in human U87 cells assessed as up regulation of proline rich nuclear receptor coactivator 1 gene expression at cytotoxic IC50 measured after 48 hrs relative to control
[10] = Inhibition of RTK/PI3K/AKT/mTOR signaling in human U87 cells assessed as up regulation of LYR motif containing 2 gene expression at cytotoxic IC50 measured after 48 hrs relative to control
[11] = Inhibition of RTK/PI3K/AKT/mTOR signaling in human U87 cells assessed as down regulation of ZNF430 gene expression at cytotoxic IC50 measured after 48 hrs relative to control
[12] = Inhibition of RTK/PI3K/AKT/mTOR signaling in human U87 cells assessed as down regulation of GTF3C3 gene expression at cytotoxic IC50 measured after 48 hrs relative to control
[13] = Inhibition of RTK/PI3K/AKT/mTOR signaling in human U87 cells assessed as down regulation of SELENOK gene expression at cytotoxic IC50 measured after 48 hrs relative to control
[14] = Inhibition of RTK/PI3K/AKT/mTOR signaling in human U87 cells assessed as up regulation of BCL2 like 1 gene expression at cytotoxic IC50 measured after 48 hrs relative to control
[15] = Inhibition of RTK/PI3K/AKT/mTOR signaling in human U87 cells assessed as down regulation of ZSCAN9 gene expression at cytotoxic IC50 measured after 48 hrs relative to control
[16] = Inhibition of RTK/PI3K/AKT/mTOR signaling in human U87 cells assessed as up regulation of ATP synthase F0 subunit 8 gene expression at cytotoxic IC50 measured after 48 hrs relative to control
[17] = Inhibition of RTK/PI3K/AKT/mTOR signaling in human U87 cells assessed as up regulation of B3GALT6 gene expression at cytotoxic IC50 measured after 48 hrs relative to control
[18] = Inhibition of RTK/PI3K/AKT/mTOR signaling in human U87 cells assessed as up regulation of period circadian clock 2 gene expression at cytotoxic IC50 measured after 48 hrs relative to control
[19] = Inhibition of RTK/PI3K/AKT/mTOR signaling in human U87 cells assessed as down regulation of DDX5 gene expression at cytotoxic IC50 measured after 48 hrs relative to control
[20] = Inhibition of RTK/PI3K/AKT/mTOR signaling in human U87 cells assessed as down regulation of RBM14 gene expression at cytotoxic IC50 measured after 48 hrs relative to control
[21] = Inhibition of RTK/PI3K/AKT/mTOR signaling in human U87 cells assessed as down regulation of UBR7 gene expression at cytotoxic IC50 measured after 48 hrs relative to control
[22] = Inhibition of RTK/PI3K/AKT/mTOR signaling in human U87 cells assessed as down regulation of MFAP1 gene expression at cytotoxic IC50 measured after 48 hrs relative to control
[23] = Inhibition of RTK/PI3K/AKT/mTOR signaling in human U87 cells assessed as up regulation of VPS28 gene expression at cytotoxic IC50 measured after 48 hrs relative to control
[24] = Inhibition of RTK/PI3K/AKT/mTOR signaling in human U87 cells assessed as up regulation of transcription factor 7 like 1 gene expression at cytotoxic IC50 measured after 48 hrs relative to control
[25] = Inhibition of RTK/PI3K/AKT/mTOR signaling in human U87 cells assessed as down regulation of IGF2R gene expression at cytotoxic IC50 measured after 48 hrs relative to control
[26] = Inhibition of RTK/PI3K/AKT/mTOR signaling in human U87 cells assessed as up regulation of EMP3 gene expression at cytotoxic IC50 measured after 48 hrs relative to control
[27] = Inhibition of RTK/PI3K/AKT/mTOR signaling in human U87 cells assessed as down regulation of NDFIP1 gene expression at cytotoxic IC50 measured after 48 hrs relative to control
[28] = Inhibition of RTK/PI3K/AKT/mTOR signaling in human U87 cells assessed as up regulation of SLC1A3 gene expression at cytotoxic IC50 measured after 48 hrs relative to control
[29] = Inhibition of RTK/PI3K/AKT/mTOR signaling in human U87 cells assessed as up regulation of arginase 2 gene expression at cytotoxic IC50 measured after 48 hrs relative to control
[30] = Inhibition of RTK/PI3K/AKT/mTOR signaling in human U87 cells assessed as up regulation of CAVIN1 gene expression at cytotoxic IC50 measured after 48 hrs relative to control
[31] = Inhibition of RTK/PI3K/AKT/mTOR signaling in human U87 cells assessed as up regulation of SLC16A5 gene expression at cytotoxic IC50 measured after 48 hrs relative to control
[32] = Inhibition of RTK/PI3K/AKT/mTOR signaling in human U87 cells assessed as up regulation of translocation associated membrane protein 1 gene expression at cytotoxic IC50 measured after 48 hrs relative to control

CC(=O)C(=NNc1ccccc1C#N)C(C)=O gave a log2FC [1] of -0.523, a log2FC [2] of -0.7 and a log2FC [3] of -1.31. It also gave a log2FC [4] of -1.65, a log2FC [5] of -1.9 and a log2FC [6] of -1.33. For the same compound, the log2FC [7] was 0.611, the log2FC [8] was 1.54 and the log2FC [9] was 0.857. For the same compound, the log2FC [10] was 0.785, the log2FC [11] was -1.97 and the log2FC [12] was -0.693. It also gave a log2FC [13] of -0.738, a log2FC [14] of 1.49 and a log2FC [15] of -1.22. For the same compound, the log2FC [16] was 0.977, the log2FC [17] was 1.8 and the log2FC [18] was 0.677. It also gave a log2FC [19] of -0.685, a log2FC [20] of -2.18 and a log2FC [21] of -1.27. The log2FC [22] was -0.824, the log2FC [23] was 0.589 and the log2FC [24] was 1.08. The log2FC [25] was -0.42, the log2FC [26] was 2.07 and the log2FC [27] was -0.533. It also gave a log2FC [28] of 2.2, a log2FC [29] of 1.09 and a log2FC [30] of 0.555. The log2FC [31] was 2.09 and the log2FC [32] was 0.794.
